Reference: paper doi:10.1101/2022.06.06.495046
No constants are given. Whether binding was seen depends on the method and setting. Binding seen in cells or lysates may run through a third protein. Here binding means that the protein was enriched with, or labelled near, the bait; the list need not be complete. Values belong to the binder of their own block, whether it stands above or below them.

Chains of the proteins cited; added tags and fusions are not shown.
UniProt P49721: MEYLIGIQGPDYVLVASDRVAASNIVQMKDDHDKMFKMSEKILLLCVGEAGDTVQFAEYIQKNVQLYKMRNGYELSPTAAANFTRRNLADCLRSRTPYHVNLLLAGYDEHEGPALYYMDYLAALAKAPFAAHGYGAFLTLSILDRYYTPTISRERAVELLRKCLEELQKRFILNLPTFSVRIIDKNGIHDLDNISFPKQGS

Target: PSMB2-HB (20S subunit PSMB2 tagged with TEV protease-cleavable hexahistidine-biotin) (human) (UniProt P49721)
Experiment: affinity purification with mass spectrometry

binding: binds
B1: UBLCP1 (enzyme, UniProt Q8WVY7 1-318)
chain: MALPIIVKWGGQEYSVTTLSEDDTVLDLKQFLKTLTGVLPERQKLLGLKVKGKPAENDVKLGALKLKPNTKIMMMGTREESLEDVLGPPPDNDDVVNDFDIEDEVVEVENREENLLKISRRVKEYKVEILNPPREGKKLLVLDVDYTLFDHRSCAETGVELMRPYLHEFLTSAYEDYDIVIWSATNMKWIEAKMKELGVSTNANYKITFMLDSAAMITVHTPRRGLIDVKPLGVIWGKFSEFYSKKNTIMFDDIGRNFLMNPQNGLKIRPFMKAHLNRDKDKELLKLTQYLKEIAKLDDFLDLNHKYWERYLSKKQGQ

binding: binds
B2: USP15 (enzyme, UniProt Q9Y4E8 1-981)
chain: MAEGGAADLDTQRSDIATLLKTSLRKGDTWYLVDSRWFKQWKKYVGFDSWDKYQMGDQNVYPGPIDNSGLLKDGDAQSLKEHLIDELDYILLPTEGWNKLVSWYTLMEGQEPIARKVVEQGMFVKHCKVEVYLTELKLCENGNMNNVVTRRFSKADTIDTIEKEIRKIFSIPDEKETRLWNKYMSNTFEPLNKPDSTIQDAGLYQGQVLVIEQKNEDGTWPRGPSTPKSPGASNFSTLPKISPSSLSNNYNNMNNRNVKNSNYCLPSYTAYKNYDYSEPGRNNEQPGLCGLSNLGNTCFMNSAIQCLSNTPPLTEYFLNDKYQEELNFDNPLGMRGEIAKSYAELIKQMWSGKFSYVTPRAFKTQVGRFAPQFSGYQQQDCQELLAFLLDGLHEDLNRIRKKPYIQLKDADGRPDKVVAEEAWENHLKRNDSIIVDIFHGLFKSTLVCPECAKISVTFDPFCYLTLPLPMKKERTLEVYLVRMDPLTKPMQYKVVVPKIGNILDLCTALSALSGIPADKMIVTDIYNHRFHRIFAMDENLSSIMERDDIYVFEININRTEDTEHVIIPVCLREKFRHSSYTHHTGSSLFGQPFLMAVPRNNTEDKLYNLLLLRMCRYVKISTETEETEGSLHCCKDQNINGNGPNGIHEEGSPSEMETDEPDDESSQDQELPSENENSQSEDSVGGDNDSENGLCTEDTCKGQLTGHKKRLFTFQFNNLGNTDINYIKDDTRHIRFDDRQLRLDERSFLALDWDPDLKKRYFDENAAEDFEKHESVEYKPPKKPFVKLKDCIELFTTKEKLGAEDPWYCPNCKEHQQATKKLDLWSLPPVLVVHLKRFSYSRYMRDKLDTLVDFPINDLDMSEFLINPNAGPCRYNLIAVSNHYGGMGGGHYTAFAKNKDDGKWYYFDDSSVSTASEDQIVSKAAYVLFYQRQDTFSGTGFFPLDRETKGASAATGIPLESDEDSNDNDNDIENENCMHTN

binding: binds
B3: TXNL1 (protein, UniProt O43396 1-289)
chain: MVGVKPVGSDPDFQPELSGAGSRLAVVKFTMRGCGPCLRIAPAFSSMSNKYPQAVFLEVDVHQCQGTAATNNISATPTFLFFRNKVRIDQYQGADAVGLEEKIKQHLENDPGSNEDTDIPKGYMDLMPFINKAGCECLNESDEHGFDNCLRKDTTFLESDCDEQLLITVAFNQPVKLYSMKFQGPDNGQGPKYVKIFINLPRSMDFEEAERSEPTQALELTEDDIKEDGIVPLRYVKFQNVNSVTIFVQSNQGEEETTRISYFTFIGTPVQATNMNDFKRVVGKKGESH

binding: binds
B4: UBFD1 (protein, UniProt O14562 1-309)
chain: MAAAGAPDGMEEPGMDTEAETVATEAPARPVNCLEAEAAAGAAAEDSGAARGSLQPAPAQPPGDPAAQASVSNGEDAGGGAGRELVDLKIIWNKTKHDVKFPLDSTGSELKQKIHSITGLPPAMQKVMYKGLVPEDKTLREIKVTSGAKIMVVGSTINDVLAVNTPKDAAQQDAKAEENKKEPLCRQKQHRKVLDKGKPEDVMPSVKGAQERLPTVPLSGMYNKSGGKVRLTFKLEQDQLWIGTKERTEKLPMGSIKNVVSEPIEGHEDYHMMAFQLGPTEASYYWVYWVPTQYVDAIKDTVLGKWQYF

binding: binds
B5: UBL4A (protein, UniProt P11441 1-157)
chain: MQLTVKALQGRECSLQVPEDELVSTLKQLVSEKLNVPVRQQRLLFKGKALADGKRLSDYSIGPNSKLNLVVKPLEKVLLEEGEAQRLADSPPPQVWQLISKVLARHFSAADASRVLEQLQRDYERSLSRLTLDDIERLASRFLHPEVTETMEKGFSK
